For 1 molecule, binding results are on record in PMC5213423, “Identification of a Drug Targeting an Intrinsically Disordered Protein Involved in Pancreatic Adenocarcinoma” (Scientific Reports, 2017).

This test concerns the target T1, Nuclear protein 1 (NUPR1), Flag-tagged (human) (UniProt O60356).
T1 sequence: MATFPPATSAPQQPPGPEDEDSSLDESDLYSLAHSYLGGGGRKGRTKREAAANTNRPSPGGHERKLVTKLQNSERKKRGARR
Description: proximity ligation; MiaPaCa-2 cells on coverslips transfected with NUPR1-Flag and MSL1-V5; one day later treated with Oxaliplatin (10 uM) to induce DNA damage together with DMSO or Compound (1 to 20 uM); PLA 24 h later with antibodies against Flag and V5 (DuoLink kit); red dots counted with ImageJ.

Results are given in words; binding and its absence hold for the method and conditions named. In cells and extracts the contact can be indirect. Some results given as binding are weak or reduced against the parent protein; the word gives no strength. Tags and fused reporters may be left off the sequences shown.

B1: Male-specific-lethal protein 1 (MSL1), V5-tagged (protein, UniProt Q68DK7 1-614)
chain: MTMRSAVFKAAAAPAGGNPEQRLDYERAAALGGPEDEPGAAEAHFLPRHRKLKEPGPPLASSQGGSPAPSPAGCGGKGRGLLLPAGAAPGQQEESWGGSVPLPCPPPATKQAGIGGEPAAAGAGCSPRPKYQAVLPIQTGSLVAAAKEPTPWAGDKGGAASPAATASDPAGPPPLPLPGPPPLAPTATAGTLAASEGRWKSMRKSPLGGGGGSGASSQAACLKQILLLQLDLIEQQQQQLQAKEKEIEELKSERDTLLARIERMERRMQLVKKDNEKERHKLFQGYETEEREETELSEKIKLECQPELSETSQTLPPKPFSCGRSGKGHKRKSPFGSTERKTPVKKLAPEFSKVKTKTPKHSPIKEEPCGSLSETVCKRELRSQETPEKPRSSVDTPPRLSTPQKGPSTHPKEKAFSSEIEDLPYLSTTEMYLCRWHQPPPSPLPLRESSPKKEETVARCLMPSSVAGETSVLAVPSWRDHSVEPLRDPNPSDLLENLDDSVFSKRHAKLELDEKRRKRWDIQRIREQRILQRLQLRMYKKKGIQESEPEVTSFFPEPDDVESLMITPFLPVVAFGRPLPKLTPQNFELPWLDERSRCRLEIQKKQTPHRTCRK
For B1, the binding result is recorded as “binds”.
